These results are taken from the supplement of paper PMC4604168 (melanoma cell lines).

Structures are written as SMILES. Some of the results follow. Single values are uncertain, as repeats are few or missing.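 Cells were imaged in 1,536-well plates, and nuclei stained with an antibody against cleaved PARP were counted against all DNA-stained nuclei to give the apoptosis fraction. Screening doses were chosen to leave most cells alive, and resting and induced cleaved-PARP levels differ strongly between cell lines.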

Assay in all cases: cleaved PARP positive nuclei fraction relative to DMSO control; melanoma cells; higher = more apoptosis
Holding throughout (details): library dose: low library concentration; 72 h

The subject of assay [1] is WM115.
For assay [2], the system named is WM1716.
For assay [3], the system named is WM1745.
Assay [4] deals with WM3526.
Assay [5] deals with WM3619.
Assay [6] deals with WM451Lu.

Consider `CS(=O)(=O)c1ccc(C(=O)Nc2ccc(Cl)c(-c3ccccn3)c2)c(Cl)c1` [vismodegib] + CC(C)C[C@H](NC(=O)[C@H](Cc1ccccc1)NC(=O)c1cnccn1)B(O)O [Bortezomib] (first compound 1 µM, partner dose 0.001 µM), for which the “cleaved PARP positive nuclei fraction” value was 61.4% in assay [1]; 59.2% in assay [2]; 107% in assay [3]; 101% in assay [4]; 121% in assay [5]; 87.2% in assay [6].
As to `NC1(c2ccc(-c3nc4ccn5c(=O)[nH]nc5c4cc3-c3ccccc3)cc2)CCC1` + CCN(CC)CCCCNc1ncc2cc(-c3cc(OC)cc(OC)c3)c(NC(=O)NC(C)(C)C)nc2n1 [PD173074] (first compound 0.4 µM, partner dose 0.1 µM), the “cleaved PARP positive nuclei fraction” value is 132% in assay [1]; 119% in assay [2]; 109% in assay [3]; 545% in assay [4]; 104% in assay [5]; 100% in assay [6].
Consider `CCN(CC)CCNC(=O)c1c(C)[nH]c(/C=C2\C(=O)Nc3ccc(F)cc32)c1C` [sunitinib] + Cc1cc([N+](=O)[O-])ccc1NS(=O)(=O)c1cc(Cl)ccc1Cl [FH535] (first compound 0.4 µM, partner dose 1 µM), for which the “cleaved PARP positive nuclei fraction” value amounted to 136% in assay [1]; 66.1% in assay [2]; 99.3% in assay [3]; 91.8% in assay [4]; 89.3% in assay [5]; 25% in assay [6].
Consider `C[C@]1(O)C[C@@H](c2nc(-c3ccc4ccc(-c5ccccc5)nc4c3)c3c(N)nccn32)C1` + Cn1cncc1[C@@](N)(c1ccc(Cl)cc1)c1ccc2c(c1)c(-c1cccc(Cl)c1)cc(=O)n2C [tipifarnib] (first compound 0.4 µM, partner dose 0.01 µM), for which the “cleaved PARP positive nuclei fraction” value turned out to be 151% in assay [1]; 154% in assay [2]; 256% in assay [3]; 77.2% in assay [4]; 89.9% in assay [5]; 101% in assay [6].
As for `C[C@@H](N)c1ccc(C(=O)Nc2ccnc3[nH]ccc23)cc1` + O=C(Nc1cccc(Cl)c1)Nc1ncc(CCNc2ncnc3ccsc23)s1 [SNS314] (first compound 0.4 µM, partner dose 0.0008 µM), the “cleaved PARP positive nuclei fraction” value in assay [1] was 548%; in assay [2] it was 124%; in assay [3] it was 116%; in assay [4], 55.1%; in assay [5] it was 88.4%; in assay [6] it was 53.1%.
Regarding `NC(=O)c1ccc(N(C(N)=O)c2c(F)cccc2F)nc1-c1ccc(F)cc1F` + COC(=O)c1sccc1S(=O)(=O)Nc1ccc(Nc2ccccc2)cc1OC [GSK0660] (first compound 0.4 µM, partner dose 1 µM), the “cleaved PARP positive nuclei fraction” value in assay [1] was determined as 60.5%; in assay [2], 89.6%; in assay [3], 92.8%; in assay [4] it was 80.5%; in assay [5] it was 80.8%; in assay [6], 101%.
For the molecule `CCN(CC)CCNC(=O)c1c(C)[nH]c(/C=C2\C(=O)Nc3ccc(F)cc32)c1C` [sunitinib] + O=C(O)[C@@H]1[O][Sb](=[O])([O][Sb]2(=[O])[O][C@H]([C@H](O)CO)[C@H](O)[C@H](C(=O)O)[O]2)[O][C@H]([C@H](O)CO)[C@@H]1O [stibogluconate] (first compound 0.4 µM, partner dose 2 µM), the “cleaved PARP positive nuclei fraction” value in assay [1] amounted to 28.1%; in assay [2], 51.7%; in assay [3], 110%; in assay [4], 45.3%; in assay [5] it was 90.3%; in assay [6] it was 39.3%.
For `CN(c1ncccc1CNc1nc(Nc2ccc3c(c2)CC(=O)N3)ncc1C(F)(F)F)S(C)(=O)=O` + OCc1c[nH]c2ccccc12 [Indole-3-carbinol] (first compound 0.08 µM, partner dose 0.8 µM), the “cleaved PARP positive nuclei fraction” value in assay [1] was 127%; in assay [2] it was 58.9%; in assay [3], 114%; in assay [4], 315%; in assay [5], 119%; in assay [6] it was 156%.
For the molecule `COc1ccc(C2=N[C@@H](c3ccc(Cl)cc3)[C@@H](c3ccc(Cl)cc3)N2C(=O)N2CCNC(=O)C2)c(OC(C)C)c1` [Nutlin-3] + Clc1ccc(Nc2nnc(Cc3ccncc3)c3ccccc23)cc1 [vatalanib] (first compound 0.1 µM, partner dose 2 µM), the “cleaved PARP positive nuclei fraction” value in assay [1] is 59.7%; in assay [2], 95.1%; in assay [3], 113%; in assay [4], 165%; in assay [5], 231%; in assay [6], 169%.
For `CN(c1ncccc1CNc1nc(Nc2ccc3c(c2)CC(=O)N3)ncc1C(F)(F)F)S(C)(=O)=O` + CC(C)CCN1c2nc(Nc3cc(F)c(O)c(F)c3)ncc2N(C)C(=O)C1C [BID1870] (first compound 0.08 µM, partner dose 0.2 µM), the “cleaved PARP positive nuclei fraction” value in assay [1] came out at 233%; in assay [2], 58.4%; in assay [3], 115%; in assay [4], 75.6%; in assay [5], 88.2%; in assay [6] it was 288%.
Take `Cn1cnc2c(F)c(Nc3ccc(Br)cc3Cl)c(C(=O)NOCCO)cc21` [selumetinib] + CCN(CC)CCNC(=O)c1c(C)[nH]c(/C=C2\C(=O)Nc3ccc(F)cc32)c1C [sunitinib] (first compound 0.015 µM, partner dose 0.4 µM): the “cleaved PARP positive nuclei fraction” value in assay [1] was found to be 52.8%; in assay [2], 180%; in assay [3] it was 122%; in assay [4], 142%; in assay [5] it was 94.1%; in assay [6], 38.8%.
Regarding `C[C@@H](N)c1ccc(C(=O)Nc2ccnc3[nH]ccc23)cc1` + CNC(=O)c1cc(Oc2ccc(NC(=O)Nc3ccc(Cl)c(C(F)(F)F)c3)cc2)ccn1 [sorafenib] (first compound 0.4 µM, partner dose 0.4 µM), the “cleaved PARP positive nuclei fraction” value in assay [1] worked out at 111%; in assay [2] it was 89.3%; in assay [3] it was 259%; in assay [4], 335%; in assay [5], 95.9%; in assay [6] it was 42.6%.
As to `COc1ccc(C2=N[C@@H](c3ccc(Cl)cc3)[C@@H](c3ccc(Cl)cc3)N2C(=O)N2CCNC(=O)C2)c(OC(C)C)c1` [Nutlin-3] + CNC(=O)c1cc(Oc2ccc(NC(=O)Nc3ccc(Cl)c(C(F)(F)F)c3)cc2)ccn1 [sorafenib] (first compound 0.1 µM, partner dose 0.4 µM), the “cleaved PARP positive nuclei fraction” value in assay [1] is 81.2%; in assay [2], 58.8%; in assay [3], 105%; in assay [4], 249%; in assay [5], 78.8%; in assay [6], 173%.
Regarding `CN(c1ncccc1CNc1nc(Nc2ccc3c(c2)CC(=O)N3)ncc1C(F)(F)F)S(C)(=O)=O` + Cn1c(Nc2ccc(C(F)(F)F)cc2)nc2cc(Oc3ccnc(-c4ncc(C(F)(F)F)[nH]4)c3)ccc21 [CHIR265] (first compound 0.08 µM, partner dose 0.08 µM), the “cleaved PARP positive nuclei fraction” value worked out at 522% in assay [1]; 87.5% in assay [2]; 221% in assay [3]; 281% in assay [4]; 146% in assay [5]; 71.3% in assay [6].
Turning to `CS(=O)(=O)c1ccc(C(=O)Nc2ccc(Cl)c(-c3ccccn3)c2)c(Cl)c1` [vismodegib] + O=C1NC(=O)/C(=C/c2ccc(-c3ccc(F)cc3O)o2)S1 [AS252424] (first compound 1 µM, partner dose 1 µM), the “cleaved PARP positive nuclei fraction” value came out at 74.7% in assay [1]; 106% in assay [2]; 103% in assay [3]; 71.5% in assay [4]; 77.3% in assay [5]; 123% in assay [6].
Consider `C[C@]1(O)C[C@@H](c2nc(-c3ccc4ccc(-c5ccccc5)nc4c3)c3c(N)nccn32)C1` + COC(=O)c1sccc1S(=O)(=O)Nc1ccc(Nc2ccccc2)cc1OC [GSK0660] (first compound 0.4 µM, partner dose 1 µM), for which the “cleaved PARP positive nuclei fraction” value was 122% in assay [1]; 32.4% in assay [2]; 103% in assay [3]; 170% in assay [4]; 104% in assay [5]; 71.2% in assay [6].
For `CC(=O)O[C@@]12CO[C@@H]1C[C@H](O)[C@@]1(C)C(=O)[C@H](O)C3=C(C)[C@@H](OC(=O)[C@H](O)[C@@H](NC(=O)OC(C)(C)C)c4ccccc4)C[C@@](O)([C@@H](OC(=O)c4ccccc4)[C@H]21)C3(C)C` [Docetaxel] + NCC(=O)Nc1ccc(-n2nc(C(F)(F)F)cc2-c2ccc3c(ccc4ccccc43)c2)cc1 [OSU03012] (first compound 0.0001 µM, partner dose 1 µM), the “cleaved PARP positive nuclei fraction” value in assay [1] was determined as 174%; in assay [2], 210%; in assay [3], 150%; in assay [4], 122%; in assay [5], 136%; in assay [6], 270%.
With `Cn1sc(=O)n(Cc2ccccc2)c1=O` + Clc1ccc(Nc2nnc(Cc3ccncc3)c3ccccc23)cc1 [vatalanib] (first compound 0.4 µM, partner dose 2 µM), the “cleaved PARP positive nuclei fraction” value is 37.8% in assay [1]; 40.6% in assay [2]; 94.3% in assay [3]; 186% in assay [4]; 103% in assay [5]; 84.6% in assay [6].
With `NC(=O)c1ccc(N(C(N)=O)c2c(F)cccc2F)nc1-c1ccc(F)cc1F` + C[C@@H]1CCN(C(=O)CC#N)C[C@@H]1N(C)c1ncnc2[nH]ccc12 [CP690550] (first compound 0.4 µM, partner dose 1 µM), the “cleaved PARP positive nuclei fraction” value is 68.4% in assay [1]; 69.1% in assay [2]; 119% in assay [3]; 67.5% in assay [4]; 51.9% in assay [5]; 62.9% in assay [6].
For the molecule `C[C@@H](N)c1ccc(C(=O)Nc2ccnc3[nH]ccc23)cc1` + COc1cc2ncnc(Nc3ccc(Oc4ccccc4)cc3)c2cc1OC [SrcI1] (first compound 0.4 µM, partner dose 2 µM), the “cleaved PARP positive nuclei fraction” value in assay [1] was 73.9%; in assay [2], 210%; in assay [3], 219%; in assay [4], 68.7%; in assay [5], 77.3%; in assay [6] it was 198%.
`CS(=O)(=O)c1ccc(C(=O)Nc2ccc(Cl)c(-c3ccccn3)c2)c(Cl)c1` [vismodegib] + Cc1cc(N2CCOCC2)cc2[nH]c(-c3c(NC[C@@H](O)c4cccc(Cl)c4)cc[nH]c3=O)nc12 [BMS536924] (first compound 1 µM, partner dose 0.2 µM): the “cleaved PARP positive nuclei fraction” value in assay [1] is 133%; in assay [2], 173%; in assay [3], 121%; in assay [4] it was 59.4%; in assay [5] it was 91.1%; in assay [6], 116%.
Take `Cn1cnc2c(F)c(Nc3ccc(Br)cc3Cl)c(C(=O)NOCCO)cc21` [selumetinib] + CC(=O)c1c(C)c2cnc(Nc3ccc(N4CCNCC4)cn3)nc2n(C2CCCC2)c1=O [palbociclib] (first compound 0.015 µM, partner dose 0.04 µM): the “cleaved PARP positive nuclei fraction” value amounted to 91.5% in assay [1]; 383% in assay [2]; 129% in assay [3]; 179% in assay [4]; 105% in assay [5]; 56.8% in assay [6].
As to `NC(=O)c1ccc(N(C(N)=O)c2c(F)cccc2F)nc1-c1ccc(F)cc1F` + NC(=O)Nc1cc(-c2cccc(F)c2)sc1C(=O)N[C@H]1CCCNC1 [AZD7762] (first compound 0.4 µM, partner dose 0.02 µM), the “cleaved PARP positive nuclei fraction” value is 95.9% in assay [1]; 208% in assay [2]; 119% in assay [3]; 154% in assay [4]; 171% in assay [5]; 57.2% in assay [6].
